Test results taken from US10021881B2, “Vaporized administration of pesticides” (priority 2016, dated 2018).

Columns and labels:
[1] = Drenching vs. vaporizing treatments of apples, pyrimethanil residue on apple
[2] = Uniformity of pyrimethanil distribution over distance in tunnel, fogged vs vaporized (Petri plates, HPLC); details: 72 hours

With `Cc1cc(C)nc(Nc2ccccc2)n1` [pyrimethanil, 4,6-Dimethyl-N-phenylpyrimidin-2-amine] the “Apple PYR residue (ppm)” value ([1]; DRENCH, Treatment Rate 500 mg/L) was 3.2 ppm, the “Apple PYR residue (ppm)” value ([1]; DRENCH, Treatment Rate 2,000 mg/L) was 3.55 ppm and the “Apple PYR residue (ppm)” value ([1]; VAPOR, Treatment Rate 0.5 mg/L) was 3.89 ppm. The “Apple PYR residue (ppm)” value ([1]; VAPOR, Treatment Rate 2 mg/L) was 7.99 ppm, the “variation from the average pyrimethanil distribution” value (“variation” below) ([2]; fogged, distances of 1-2 meters) was 50%-110% and the “variation” value ([2]; fogged, distances of 5-8 meters) was 20%-50%. The “variation” value ([2]; vaporized, until the treatment distance was increased to 8 meters) was at most 40%.
